In patent US20250090677A1, “ANTI-CDH6 ANTIBODIES AND ANTIBODY-DRUG CONJUGATES THEREOF” (MULTITUDE THERAPEUTICS INC., priority 2021, published 2025):
These are yes or no findings as the source states them, for the method shown. Some binding calls cover weakened binding; strength is not graded here.

Experiments:
[1] = target: cyno monkey CDH6-ECD-His (cyno monkey); test: ELISA, antigen coated at 1 ug/mL, 3-fold antibody dilutions, HRP anti-human antibody, OD450
[2] = target: cyno monkey CDH6-ECD-His (cyno monkey); test: ELISA, antigen coated
[3] = target: cyno monkey CDH6-ECD-His (cyno monkey); test: BLI (Octet), antibody on AHC sensor

- binding [1]: binds
- binding [2]: binds
- binding [3]: binds
B1: CL069707-H1L1 (antibody, human IgG1, kappa, V domains shown)
VH: EVQLVESGGGLVQPGGSLRLSCAASGFTFTTYAMNWVRQAPGKGLEWVARIRIKNNNYATYYADSVTDRFTISRDDSKNSLYLQMNSLKTEDTAVYYCVRPDYGNYGLAYWGQGTLVTVSS
VL: DIQLTQSPSSLSASVGDRVTITCSASSSISSHYLHWYQQKPGKSPKLLIYRSFYLASGVPSRFSGSGSGTDFTLTISSLQPEDFATYYCQQDIVPLTFGQGTKLEIKR
